Reference: PubChem BioAssay AID504774 (Drosophila RNAi Screening Center, 2011)
The deposit covers about 23,000 reagents; this is a random part of those that have a named target and a result. 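Values are quantile-normalised luminescence on an arbitrary scale; higher means more cells surviving MMS.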 Not all columns of the deposit are shown.

Aim: 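Fly genes whose loss alters survival after alkylation damage to DNA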 (primary screen)
System: Drosophila Kc167 cells
Knock-down reagent: long dsRNA against Drosophila genes, about 0.25 µg dsRNA per well
Timing: about 6 days: 3 days knock-down, then 3 days with or without MMS
Treatment: methyl methanesulphonate 0.004% (w/v) for 3 days after knock-down
Measurement: 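ATP-dependent luminescence as a measure of live cells in MMS-exposed wells, quantile normalised within each plate, with replicate values also given as a mean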
Scale: mean viability with MMS: higher = more surviving cells after MMS

sov (small ovary) [DRSC17930]
- mean viability with MMS: 3.67e6

CG15641 [DRSC19677]
- mean viability with MMS: 3.58e6

CG12299 [DRSC02158]
- mean viability with MMS: 3.41e6

Ir68a (Ionotropic receptor 68a) [DRSC10599]
- mean viability with MMS: 3.56e6

CG33325 [DRSC12699]
- mean viability with MMS: 3.49e6

CG34210 [DRSC04579]
- mean viability with MMS: 3.66e6

CG18231 [DRSC10307]
- mean viability with MMS: 3.56e6

Gug (Grunge) [DRSC11179]
- mean viability with MMS: 3.55e6

CG2604 [DRSC12313]
- mean viability with MMS: 3.45e6

CG14491 [DRSC06462]
- mean viability with MMS: 3.61e6

CG3448 [DRSC10368]
- mean viability with MMS: 3.53e6

Mur11Da (Mucin related 11Da) [DRSC18960]
- mean viability with MMS: 3.40e6

Part of the list above, reformatted:
predicted target | amplicon | mean viability with MMS
sov (small ovary) | DRSC17930 | 3.67e6
CG15641 | DRSC19677 | 3.58e6

The listing continues:
eIF2D (eukaryotic translation initiation factor 2D) [DRSC13916]
- mean viability with MMS: 3.59e6

wdb (widerborst) [DRSC14163]
- mean viability with MMS: 3.27e6

CG34435 [DRSC18086]
- mean viability with MMS: 3.59e6

Jhbp1 (Juvenile hormone binding protein 1) [DRSC12167]
- mean viability with MMS: 3.32e6

CG15719 [DRSC19685]
- mean viability with MMS: 3.68e6

puml (pummelig) [DRSC06793]
- mean viability with MMS: 3.55e6

CG14676 [DRSC12262]
- mean viability with MMS: 3.51e6

ppk3 (pickpocket 3) [DRSC04275]
- mean viability with MMS: 3.68e6

KLHL18 (Kelch like family member 18) [DRSC15496]
- mean viability with MMS: 3.55e6

PH4alphaSG2 (prolyl-4-hydroxylase-alpha SG2) [DRSC15037]
- mean viability with MMS: 3.65e6

CG10560 [DRSC14256]
- mean viability with MMS: 3.31e6

CG16935 [DRSC06638]
- mean viability with MMS: 3.55e6

arg (arginase) [DRSC18737]
- mean viability with MMS: 3.56e6

ppk10 (pickpocket 10) [DRSC01123]
- mean viability with MMS: 3.51e6

CG8260 [DRSC20098]
- mean viability with MMS: 3.52e6

Bace (beta-site APP-cleaving enzyme) [DRSC02197]
- mean viability with MMS: 1.30e6

Cul1 (Cullin 1) [DRSC07645]
- mean viability with MMS: 3.42e6

cv-c (crossveinless c) [DRSC14969]
- mean viability with MMS: 3.61e6

cv-c (crossveinless c) [DRSC14970]
- mean viability with MMS: 3.66e6

cv-c (crossveinless c) [DRSC14971]
- mean viability with MMS: 3.26e6

cv-c (crossveinless c) [DRSC14972]
- mean viability with MMS: 3.54e6

cv-c (crossveinless c) [DRSC14973]
- mean viability with MMS: 3.52e6

cv-c (crossveinless c) [DRSC16428]
- mean viability with MMS: 3.67e6

cv-c (crossveinless c) [DRSC23199]
- mean viability with MMS: 3.76e6
